For assay [1], the target named is endogenous HIF2A (hypoxia-stabilized) of human cells (human (endogenous in HEK293 and HCMs)) (UniProt Q99814). As to the kind of experiment: co-IP; reciprocal: HEK293 cells overexpressing BMAL1-Flag, normoxia or hypoxia (1% O2, 4 h); cytosolic and nuclear extracts immunoprecipitated with anti-HIF2A, Western blot.
Assay [2] shares this target. The assay is described as follows: proximity ligation; in situ PLA (Duolink) on fixed primary human cardiomyocytes after 1% O2 for 0, 1, 4 or 8 h; signals per nucleus.
For assay [3] the target is unchanged. The assay is described as follows: co-IP; primary human cardiomyocytes synchronized with dexamethasone (200 nM, 1 h), hypoxia (1% O2, 4 h) at CT20 or CT32; nuclear extracts immunoprecipitated with anti-HIF2A.
The target is the same in assay [4]. The assay is described as follows: co-IP; primary human cardiomyocytes, 1% O2 for 0, 0.5, 1, 2, 4 or 8 h; lysate in HEPES EB buffer (20 mM HEPES pH 7.4, 100 mM NaCl, 1 mM EDTA, 0.1% Triton X-100, 5% glycerol) immunoprecipitated with anti-HIF2A.
Assay [5] addresses endogenous BMAL1 of primary human cardiomyocytes (human (endogenous in HCMs)) (UniProt O00327). The assay is described as follows: proximity ligation; in situ PLA (Duolink) on fixed primary human cardiomyocytes after 1% O2 for 0, 1, 4 or 8 h; signals per nucleus.
Assay [6] concerns the target BMAL1-Flag (pcDNA3 mBmal1) overexpressed in HEK293 cells (mouse) (UniProt Q9WTL8). The assay is described as follows: co-IP; HEK293 cells overexpressing BMAL1-Flag, normoxia or hypoxia (1% O2, 4 h); cytosolic and nuclear extracts immunoprecipitated with anti-Flag, Western blot. (In general: A western blot detects proteins with antibodies after separation by electrophoresis.)

The chains behind the UniProt entries cited, without tags or fusion partners.
UniProt Q99814: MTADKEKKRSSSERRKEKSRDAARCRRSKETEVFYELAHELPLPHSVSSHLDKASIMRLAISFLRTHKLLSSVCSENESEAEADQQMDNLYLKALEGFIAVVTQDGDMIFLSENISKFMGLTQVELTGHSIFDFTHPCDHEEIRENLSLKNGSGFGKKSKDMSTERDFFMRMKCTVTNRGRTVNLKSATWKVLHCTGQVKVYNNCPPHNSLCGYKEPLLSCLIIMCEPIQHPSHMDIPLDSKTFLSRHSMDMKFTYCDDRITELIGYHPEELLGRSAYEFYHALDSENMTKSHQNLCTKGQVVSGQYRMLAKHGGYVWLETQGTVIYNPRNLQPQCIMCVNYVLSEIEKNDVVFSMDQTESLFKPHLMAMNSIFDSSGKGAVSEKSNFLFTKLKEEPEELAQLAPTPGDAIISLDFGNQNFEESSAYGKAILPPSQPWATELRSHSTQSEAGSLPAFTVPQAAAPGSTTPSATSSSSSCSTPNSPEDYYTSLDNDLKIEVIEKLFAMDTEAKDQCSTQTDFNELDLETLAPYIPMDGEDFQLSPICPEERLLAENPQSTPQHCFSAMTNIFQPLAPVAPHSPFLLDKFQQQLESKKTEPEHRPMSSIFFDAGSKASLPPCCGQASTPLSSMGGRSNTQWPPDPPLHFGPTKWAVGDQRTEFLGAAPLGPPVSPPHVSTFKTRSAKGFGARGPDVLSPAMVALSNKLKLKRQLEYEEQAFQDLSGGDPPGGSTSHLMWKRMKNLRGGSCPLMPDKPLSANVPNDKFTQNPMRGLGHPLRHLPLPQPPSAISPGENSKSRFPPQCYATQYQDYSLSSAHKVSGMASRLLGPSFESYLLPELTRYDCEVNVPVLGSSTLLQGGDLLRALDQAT
UniProt O00327: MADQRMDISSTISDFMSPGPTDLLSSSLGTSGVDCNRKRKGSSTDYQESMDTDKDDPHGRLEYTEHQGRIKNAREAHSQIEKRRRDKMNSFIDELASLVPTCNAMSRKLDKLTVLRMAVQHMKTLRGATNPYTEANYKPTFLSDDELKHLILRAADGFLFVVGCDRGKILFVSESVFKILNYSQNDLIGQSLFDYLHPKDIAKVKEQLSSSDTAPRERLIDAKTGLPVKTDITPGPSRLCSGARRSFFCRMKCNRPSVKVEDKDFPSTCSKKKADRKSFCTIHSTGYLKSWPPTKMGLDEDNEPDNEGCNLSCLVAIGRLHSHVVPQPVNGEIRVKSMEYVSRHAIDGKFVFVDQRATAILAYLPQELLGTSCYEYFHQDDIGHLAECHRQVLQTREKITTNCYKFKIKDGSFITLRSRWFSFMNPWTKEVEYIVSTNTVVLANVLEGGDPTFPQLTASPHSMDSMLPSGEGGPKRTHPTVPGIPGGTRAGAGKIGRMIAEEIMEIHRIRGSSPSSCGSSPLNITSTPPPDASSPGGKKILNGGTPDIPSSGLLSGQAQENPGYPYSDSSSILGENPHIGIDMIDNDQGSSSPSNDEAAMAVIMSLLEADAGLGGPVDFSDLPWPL
UniProt Q9WTL8: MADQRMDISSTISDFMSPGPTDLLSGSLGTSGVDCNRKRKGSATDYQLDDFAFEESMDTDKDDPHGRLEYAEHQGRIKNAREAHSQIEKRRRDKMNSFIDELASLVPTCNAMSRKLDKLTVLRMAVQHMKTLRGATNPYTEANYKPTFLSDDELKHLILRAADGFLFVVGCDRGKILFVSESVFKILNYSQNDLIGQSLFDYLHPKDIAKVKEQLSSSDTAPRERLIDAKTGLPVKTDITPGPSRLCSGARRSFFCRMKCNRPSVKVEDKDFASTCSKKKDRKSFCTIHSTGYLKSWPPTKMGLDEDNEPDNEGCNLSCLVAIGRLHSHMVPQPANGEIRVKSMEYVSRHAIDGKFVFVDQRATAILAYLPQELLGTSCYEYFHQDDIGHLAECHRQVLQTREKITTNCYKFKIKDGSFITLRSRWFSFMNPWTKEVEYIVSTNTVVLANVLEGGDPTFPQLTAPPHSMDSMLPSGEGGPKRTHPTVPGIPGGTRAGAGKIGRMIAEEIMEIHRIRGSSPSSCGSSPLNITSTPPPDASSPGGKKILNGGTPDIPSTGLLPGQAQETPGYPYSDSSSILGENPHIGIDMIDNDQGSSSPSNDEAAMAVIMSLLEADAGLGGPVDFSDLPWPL
UniProt Q16665: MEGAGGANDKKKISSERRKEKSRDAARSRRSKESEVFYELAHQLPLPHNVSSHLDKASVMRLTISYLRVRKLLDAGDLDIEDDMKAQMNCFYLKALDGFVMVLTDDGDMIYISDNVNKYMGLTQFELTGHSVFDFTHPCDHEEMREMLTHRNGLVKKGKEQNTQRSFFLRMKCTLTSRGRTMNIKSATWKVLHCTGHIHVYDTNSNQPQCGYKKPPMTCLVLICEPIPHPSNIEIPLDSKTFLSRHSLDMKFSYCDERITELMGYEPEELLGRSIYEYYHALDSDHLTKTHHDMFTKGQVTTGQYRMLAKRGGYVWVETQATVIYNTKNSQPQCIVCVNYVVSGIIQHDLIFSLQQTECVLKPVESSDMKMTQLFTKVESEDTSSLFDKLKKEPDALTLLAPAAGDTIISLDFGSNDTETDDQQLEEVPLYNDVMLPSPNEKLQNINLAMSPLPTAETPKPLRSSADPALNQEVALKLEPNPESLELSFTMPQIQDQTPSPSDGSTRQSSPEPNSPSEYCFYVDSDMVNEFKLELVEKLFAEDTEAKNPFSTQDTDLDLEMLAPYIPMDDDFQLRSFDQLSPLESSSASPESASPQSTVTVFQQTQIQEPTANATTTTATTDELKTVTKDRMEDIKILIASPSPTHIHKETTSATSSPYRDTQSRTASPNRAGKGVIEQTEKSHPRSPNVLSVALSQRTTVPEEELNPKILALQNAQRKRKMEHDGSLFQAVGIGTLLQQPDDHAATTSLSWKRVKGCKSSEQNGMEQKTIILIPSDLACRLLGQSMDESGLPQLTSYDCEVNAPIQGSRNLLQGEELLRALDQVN

The target is the same in assay [7]. As to the kind of experiment: co-IP; HEK293 cells overexpressing WT or mutated Flag-tagged BMAL1, hypoxia (1% O2, 4 h); immunoprecipitated with anti-Flag, blotted with anti-HIF2A and anti-Flag.

For five molecules, binding results are on record in PMC10925443.

These are yes or no findings as the source states them, for the method shown. In cells and extracts the contact can be indirect. Some binding calls cover weakened binding; strength is not graded here.

“BMAL1-Flag (pcDNA3 mBmal1) overexpressed in HEK293 cells (from UniProt Q9WTL8 1-632)”: the binding entry in assay [1] was “binds”. For “endogenous BMAL1 of primary human cardiomyocytes (from UniProt O00327 1-626)”, the binding result in assay [2], in assay [3] and in assay [4] was “binds” throughout. Turning to “endogenous HIF1A of human cells (from UniProt Q16665 1-826)”, the binding result in assay [5] and in assay [6] was “binds weakly” in each case. For the molecule “endogenous HIF2A (hypoxia-stabilized) of human cells (from UniProt Q99814 1-870)”, the binding entry in assay [6] and in assay [7] was “binds” throughout.

B1: endogenous CLOCK of HEK293 cells (protein, UniProt O15516 1-846)
chain: MLFTVSCSKMSSIVDRDDSSIFDGLVEEDDKDKAKRVSRNKSEKKRRDQFNVLIKELGSMLPGNARKMDKSTVLQKSIDFLRKHKEITAQSDASEIRQDWKPTFLSNEEFTQLMLEALDGFFLAIMTDGSIIYVSESVTSLLEHLPSDLVDQSIFNFIPEGEHSEVYKILSTHLLESDSLTPEYLKSKNQLEFCCHMLRGTIDPKEPSTYEYVKFIGNFKSLNSVSSSAHNGFEGTIQRTHRPSYEDRVCFVATVRLATPQFIKEMCTVEEPNEEFTSRHSLEWKFLFLDHRAPPIIGYLPFEVLGTSGYDYYHVDDLENLAKCHEHLMQYGKGKSCYYRFLTKGQQWIWLQTHYYITYHQWNSRPEFIVCTHTVVSYAEVRAERRRELGIEESLPETAADKSQDSGSDNRINTVSLKEALERFDHSPTPSASSRSSRKSSHTAVSDPSSTPTKIPTDTSTPPRQHLPAHEKMVQRRSSFSSQSINSQSVGSSLTQPVMSQATNLPIPQGMSQFQFSAQLGAMQHLKDQLEQRTRMIEANIHRQQEELRKIQEQLQMVHGQGLQMFLQQSNPGLNFGSVQLSSGNSSNIQQLAPINMQGQVVPTNQIQSGMNTGHIGTTQHMIQQQTLQSTSTQSQQNVLSGHSQQTSLPSQTQSTLTAPLYNTMVISQPAAGSMVQIPSSMPQNSTQSAAVTTFTQDRQIRFSQGQQLVTKLVTAPVACGAVMVPSTMLMGQVVTAYPTFATQQQQSQTLSVTQQQQQQSSQEQQLTSVQQPSQAQLTQPPQQFLQTSRLLHGNPSTQLILSAAFPLQQSTFPQSHHQQHQSQQQQQLSRHRTDSLPDPSKVQPQ
B1: in assay [6], the binding result was “binds”.
